Reference: PMC6399299, “Pocket similarity identifies selective estrogen receptor modulators as microtubule modulators at the taxane site” (Nature Communications, 2019)

tested on: T1, Purified tubulin (alpha/beta-tubulin heterodimer; taxane site of beta-tubulin); test: DAPI fluorescence tubulin polymerization assay; type: biochemical; conditions: 50 µM; 50 µM compound, 1 mM GTP, pH 6.9, 37 °C, 30 min; 100% = 10 µM paclitaxel
T1 construct: gene TUBB; mixed isotypes
Description: DAPI fluorescence tubulin polymerization assay on Purified tubulin (alpha/beta-tubulin heterodimer; taxane site of beta-tubulin)

Structure (SMILES)	In vitro polymerization^a / MEP (%)
Oc1ccc2c(c1)CC[C@H](c1ccccc1)[C@@H]2c1ccc(OCCN2CCCC2)cc1 [compound 13, LAS]	23.5%
CCC(=C(c1ccc(O)cc1)c1ccc(O)cc1)c1cccc(Nc2cccc3ccccc23)c1 [compound 3, 5C6]	26.7%
O=C(c1ccc(OCCN2CCCCC2)cc1)c1c(-c2ccc(O)cc2)sc2cc(O)ccc12 [compound 7, RAL]	34.5%
